Results deposited as PubChem BioAssay AID1259254 (NCATS, 2017)
The whole screen tested about 59,000 reagents; below is a part drawn at random. About 1,550 of them (2.6%) were called active. 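G2 share is only a proxy for re-replication; each gene was hit by three separate siRNAs, and active genes were retested.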 The raw values are shown without normalisation. The numbers tell different reagents against one gene apart. Not given: the amount of reagent.

Assay: 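Gene knock-downs that lead to re-replication, shown by excess G2 DNA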 (primary screen)
System: human HCT116 colorectal cancer cells
Knock-down reagent: single siRNA against human genes
Time to read-out: 3 days
Measured: 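Nuclei stained with Hoechst and imaged; cell-cycle phase assigned by DNA content; G2 share scaled per plate, non-targeting siRNA 0%, GMNN siRNA 100%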
Reading the numbers: G2 robust z-score and G2 cells, % of GMNN control: higher = more G2 cells, more excess DNA replication; raw share of cells in G2: higher = larger share of cells with G2 DNA content
Rule for the call: 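Active siRNAs have a G2 robust z of 5 or more median absolute deviations over the median, which in these data means about 38% or higher of GMNN control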

target	siRNA no.	G2 robust z-score	G2 cells, % of GMNN control	raw share of cells in G2 (%)	call
CDH8	1	1.27	11.9	9.22	inactive
CDH8	2	8.49	62.7	27.9	active
CDH8	3	0.287	4.98	5.81	inactive
CA7	1	-0.171	1.76	4.65	inactive
CA7	2	0.117	3.79	6.42	inactive
CA7	3	-1.68	-8.86	1.7	inactive
SYNCRIP	1	-0.765	-2.41	5.53	inactive
SYNCRIP	2	-0.826	-2.85	2.92	inactive
SYNCRIP	3	-0.83	-2.87	4.45	inactive
NAA16	1	-0.291	0.923	6.03	inactive
NAA16	2	-0.484	-0.435	4.19	inactive
NAA16	3	0.0447	3.28	5.42	inactive
FRMD6-AS1	1	-0.0773	2.42	3.91	inactive
FRMD6-AS1	2	-0.745	-2.27	3.07	inactive
FRMD6-AS1	3	0.237	4.63	4.34	inactive
OR11L1	1	-0.786	-2.57	2.88	inactive
OR11L1	2	-0.893	-3.32	2.2	inactive
OR11L1	3	-0.645	-1.57	4.14	inactive
GBA3	1	0.166	4.14	5.73	inactive
GBA3	2	0.0101	3.04	6.9	inactive
GBA3	3	-0.311	0.78	4.62	inactive
GRAMD1A	1	-0.077	2.43	5.3	inactive
GRAMD1A	2	-0.601	-1.26	3.86	inactive
GRAMD1A	3	0.102	3.69	4.2	inactive
MORN4	1	0.191	4.31	5.82	inactive
MORN4	2	3.94	30.7	12.5	inactive
MORN4	3	-0.319	0.726	2.03	inactive

Taken from above.
Under “call”, CDH8 #3 reads inactive
Entry of CDH8 #2 in “G2 robust z-score”: 8.49
For “call”, SYNCRIP #2 has inactive
For “G2 robust z-score”, NAA16 #3 is entered as 0.0447
FRMD6-AS1 #1, call → inactive
CA7 #3, call → inactive

The results go on:
target	siRNA no.	G2 robust z-score	G2 cells, % of GMNN control	raw share of cells in G2 (%)	call
ERCC6L	1	-0.959	-3.78	4.24	inactive
ERCC6L	2	-0.714	-2.06	3.48	inactive
ERCC6L	3	-0.161	1.84	4.5	inactive
DDX42	1	4.38	33.8	15.5	inactive
DDX42	2	0.129	3.88	7.92	inactive
DDX42	3	3.36	26.6	13	inactive
RAD51	1	1.1	10.7	8.67	inactive
RAD51	2	0.723	8.06	7.76	inactive
RAD51	3	1.42	13	8.45	inactive
AMY1A	1	-0.686	-1.86	4.08	inactive
AMY1A	2	-0.223	1.4	4.51	inactive
AMY1A	3	0.677	7.73	7.82	inactive
OR1J4	1	0.744	8.2	7.5	inactive
OR1J4	2	1.96	16.8	11.2	inactive
OR1J4	3	0.652	7.56	5.94	inactive
PRKACA	1	1.84	15.9	10.9	inactive
PRKACA	2	-0.107	2.22	6.16	inactive
PRKACA	3	-0.785	-2.55	3.12	inactive
PIAS4	1	-0.922	-3.52	4.36	inactive
PIAS4	2	-0.795	-2.63	3.27	inactive
PIAS4	3	-0.0449	2.65	4.82	inactive
OR8U1	1	0.00308	2.99	4.66	inactive
OR8U1	2	6.69	50	20.3	active
OR8U1	3	1.65	14.6	7.85	inactive
PAM16	1	-0.464	-0.3	3.16	inactive
PAM16	2	-0.54	-0.832	3.54	inactive
PAM16	3	0.524	6.65	7.06	inactive
OR2W1	1	-0.794	-2.62	3.43	inactive
OR2W1	2	1.68	14.8	10.4	inactive
OR2W1	3	-0.234	1.32	3.76	inactive
GLYATL1	1	1.77	15.4	11.6	inactive
GLYATL1	2	-1.14	-5.09	3.31	inactive
GLYATL1	3	-0.291	0.918	4.83	inactive
TUBB4A	1	-0.48	-0.407	3.71	inactive
TUBB4A	2	0.7	7.89	9.12	inactive
TUBB4A	3	-0.704	-1.99	5.69	inactive
SND1	1	1.25	11.7	11.5	inactive
SND1	2	0.13	3.88	5.48	inactive
SND1	3	-1.04	-4.35	2.57	inactive
EPHB1	1	-0.0907	2.33	6.38	inactive
EPHB1	2	0.425	5.96	7.42	inactive
EPHB1	3	-0.988	-3.98	2.62	inactive
